Data from the supplement of paper PMC10849652.
The other results are listed elsewhere or left out.

Chains of the proteins cited; added tags and fusions are not shown. Lines headed by an entry give the natural chain unless they say otherwise; changes in a name come on top.
UniProt Q92922, whole entry, looked up: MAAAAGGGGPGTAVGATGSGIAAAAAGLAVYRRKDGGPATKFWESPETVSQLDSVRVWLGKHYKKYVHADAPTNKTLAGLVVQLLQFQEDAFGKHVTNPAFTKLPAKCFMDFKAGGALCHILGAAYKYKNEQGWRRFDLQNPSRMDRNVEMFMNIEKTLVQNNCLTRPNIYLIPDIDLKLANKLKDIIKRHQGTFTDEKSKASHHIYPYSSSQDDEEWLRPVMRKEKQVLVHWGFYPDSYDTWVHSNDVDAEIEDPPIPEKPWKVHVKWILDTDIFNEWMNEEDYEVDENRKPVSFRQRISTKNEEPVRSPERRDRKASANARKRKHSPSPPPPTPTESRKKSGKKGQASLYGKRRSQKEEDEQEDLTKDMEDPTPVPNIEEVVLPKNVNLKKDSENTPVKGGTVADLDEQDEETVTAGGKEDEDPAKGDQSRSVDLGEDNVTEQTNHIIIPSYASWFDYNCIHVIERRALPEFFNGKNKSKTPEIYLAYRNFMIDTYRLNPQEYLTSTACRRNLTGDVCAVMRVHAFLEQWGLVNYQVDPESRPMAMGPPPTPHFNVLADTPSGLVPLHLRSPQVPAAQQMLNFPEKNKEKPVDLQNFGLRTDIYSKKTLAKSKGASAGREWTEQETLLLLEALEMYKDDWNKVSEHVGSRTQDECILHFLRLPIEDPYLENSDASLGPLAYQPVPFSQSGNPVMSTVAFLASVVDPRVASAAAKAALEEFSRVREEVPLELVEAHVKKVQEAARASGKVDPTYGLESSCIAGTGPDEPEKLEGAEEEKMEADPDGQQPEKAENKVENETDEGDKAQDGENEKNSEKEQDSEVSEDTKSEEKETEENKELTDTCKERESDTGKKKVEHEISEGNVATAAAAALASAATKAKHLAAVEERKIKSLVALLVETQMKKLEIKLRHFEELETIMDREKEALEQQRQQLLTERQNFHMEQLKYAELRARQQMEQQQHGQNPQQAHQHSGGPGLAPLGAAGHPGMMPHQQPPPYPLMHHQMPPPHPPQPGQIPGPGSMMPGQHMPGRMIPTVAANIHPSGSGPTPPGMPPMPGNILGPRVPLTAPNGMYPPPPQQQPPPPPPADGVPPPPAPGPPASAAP
UniProt Q96EX1: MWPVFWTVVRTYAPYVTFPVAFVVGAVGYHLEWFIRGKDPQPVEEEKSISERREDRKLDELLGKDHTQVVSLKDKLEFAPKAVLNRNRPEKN
UniProt O95347, whole entry, looked up: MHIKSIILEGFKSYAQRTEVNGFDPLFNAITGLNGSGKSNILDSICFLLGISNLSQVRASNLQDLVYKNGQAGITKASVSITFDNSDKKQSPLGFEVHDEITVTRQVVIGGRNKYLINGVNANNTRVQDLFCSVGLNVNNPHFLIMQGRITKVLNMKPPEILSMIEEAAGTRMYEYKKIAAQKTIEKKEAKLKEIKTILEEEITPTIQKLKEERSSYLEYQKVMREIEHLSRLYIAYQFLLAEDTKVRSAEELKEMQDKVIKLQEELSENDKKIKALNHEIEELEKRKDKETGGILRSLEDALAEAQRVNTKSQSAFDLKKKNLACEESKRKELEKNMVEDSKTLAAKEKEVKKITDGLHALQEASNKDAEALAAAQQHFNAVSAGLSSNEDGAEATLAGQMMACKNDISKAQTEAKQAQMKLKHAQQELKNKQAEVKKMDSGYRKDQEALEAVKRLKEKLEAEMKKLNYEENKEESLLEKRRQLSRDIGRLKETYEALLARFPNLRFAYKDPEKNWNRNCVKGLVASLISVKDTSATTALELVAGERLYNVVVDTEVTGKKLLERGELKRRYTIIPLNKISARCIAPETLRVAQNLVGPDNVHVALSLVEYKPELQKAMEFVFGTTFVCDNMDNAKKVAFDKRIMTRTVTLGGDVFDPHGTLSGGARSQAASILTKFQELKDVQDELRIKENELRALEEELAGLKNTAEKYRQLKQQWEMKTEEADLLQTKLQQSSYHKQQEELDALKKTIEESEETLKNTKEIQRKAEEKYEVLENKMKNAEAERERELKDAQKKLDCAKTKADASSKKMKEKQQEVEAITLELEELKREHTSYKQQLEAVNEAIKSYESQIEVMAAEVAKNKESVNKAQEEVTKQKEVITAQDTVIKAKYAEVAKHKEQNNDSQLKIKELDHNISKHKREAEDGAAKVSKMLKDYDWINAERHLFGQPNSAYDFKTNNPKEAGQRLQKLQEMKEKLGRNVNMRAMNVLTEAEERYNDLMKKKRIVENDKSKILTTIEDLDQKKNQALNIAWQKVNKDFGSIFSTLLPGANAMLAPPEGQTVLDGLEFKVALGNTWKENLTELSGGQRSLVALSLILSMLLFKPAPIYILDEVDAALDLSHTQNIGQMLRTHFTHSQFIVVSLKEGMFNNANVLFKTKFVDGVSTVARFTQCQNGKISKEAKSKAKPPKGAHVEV
UniProt Q7KZF4: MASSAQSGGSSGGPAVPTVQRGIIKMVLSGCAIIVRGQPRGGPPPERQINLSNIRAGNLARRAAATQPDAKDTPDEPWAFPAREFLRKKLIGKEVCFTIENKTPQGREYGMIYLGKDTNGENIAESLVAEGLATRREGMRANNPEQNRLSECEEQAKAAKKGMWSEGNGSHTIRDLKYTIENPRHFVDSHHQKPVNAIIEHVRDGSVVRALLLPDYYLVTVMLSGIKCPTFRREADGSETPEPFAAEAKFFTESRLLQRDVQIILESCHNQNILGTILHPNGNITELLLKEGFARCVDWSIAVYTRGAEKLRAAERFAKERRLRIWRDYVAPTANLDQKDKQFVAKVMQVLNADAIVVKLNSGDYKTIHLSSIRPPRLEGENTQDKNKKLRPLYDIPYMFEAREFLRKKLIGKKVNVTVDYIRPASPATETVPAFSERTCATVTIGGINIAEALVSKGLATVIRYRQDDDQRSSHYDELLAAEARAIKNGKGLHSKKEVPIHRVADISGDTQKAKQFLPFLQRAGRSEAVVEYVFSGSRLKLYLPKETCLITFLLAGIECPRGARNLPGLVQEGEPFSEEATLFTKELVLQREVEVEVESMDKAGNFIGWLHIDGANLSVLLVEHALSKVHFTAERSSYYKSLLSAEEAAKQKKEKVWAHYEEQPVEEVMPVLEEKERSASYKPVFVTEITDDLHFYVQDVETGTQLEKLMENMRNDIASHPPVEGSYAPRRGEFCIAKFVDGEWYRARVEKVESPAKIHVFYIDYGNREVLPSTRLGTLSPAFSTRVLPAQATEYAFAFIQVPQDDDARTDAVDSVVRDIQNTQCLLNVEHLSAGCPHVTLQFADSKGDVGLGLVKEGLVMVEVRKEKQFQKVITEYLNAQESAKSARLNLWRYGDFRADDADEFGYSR
UniProt P62306, whole entry, looked up: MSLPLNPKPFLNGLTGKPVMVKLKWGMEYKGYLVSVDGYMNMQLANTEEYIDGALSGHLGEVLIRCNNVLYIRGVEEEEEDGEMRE
UniProt P09661: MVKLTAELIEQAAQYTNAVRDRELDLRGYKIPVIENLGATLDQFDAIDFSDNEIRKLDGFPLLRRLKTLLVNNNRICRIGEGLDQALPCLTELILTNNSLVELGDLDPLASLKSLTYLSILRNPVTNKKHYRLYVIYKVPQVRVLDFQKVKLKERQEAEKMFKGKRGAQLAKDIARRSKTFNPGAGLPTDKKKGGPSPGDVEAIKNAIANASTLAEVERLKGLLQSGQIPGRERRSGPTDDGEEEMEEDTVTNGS
UniProt Q96KF7: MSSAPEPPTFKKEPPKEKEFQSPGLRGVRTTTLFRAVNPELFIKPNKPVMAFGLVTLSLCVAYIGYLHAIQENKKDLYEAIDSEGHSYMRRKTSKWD
UniProt Q14683: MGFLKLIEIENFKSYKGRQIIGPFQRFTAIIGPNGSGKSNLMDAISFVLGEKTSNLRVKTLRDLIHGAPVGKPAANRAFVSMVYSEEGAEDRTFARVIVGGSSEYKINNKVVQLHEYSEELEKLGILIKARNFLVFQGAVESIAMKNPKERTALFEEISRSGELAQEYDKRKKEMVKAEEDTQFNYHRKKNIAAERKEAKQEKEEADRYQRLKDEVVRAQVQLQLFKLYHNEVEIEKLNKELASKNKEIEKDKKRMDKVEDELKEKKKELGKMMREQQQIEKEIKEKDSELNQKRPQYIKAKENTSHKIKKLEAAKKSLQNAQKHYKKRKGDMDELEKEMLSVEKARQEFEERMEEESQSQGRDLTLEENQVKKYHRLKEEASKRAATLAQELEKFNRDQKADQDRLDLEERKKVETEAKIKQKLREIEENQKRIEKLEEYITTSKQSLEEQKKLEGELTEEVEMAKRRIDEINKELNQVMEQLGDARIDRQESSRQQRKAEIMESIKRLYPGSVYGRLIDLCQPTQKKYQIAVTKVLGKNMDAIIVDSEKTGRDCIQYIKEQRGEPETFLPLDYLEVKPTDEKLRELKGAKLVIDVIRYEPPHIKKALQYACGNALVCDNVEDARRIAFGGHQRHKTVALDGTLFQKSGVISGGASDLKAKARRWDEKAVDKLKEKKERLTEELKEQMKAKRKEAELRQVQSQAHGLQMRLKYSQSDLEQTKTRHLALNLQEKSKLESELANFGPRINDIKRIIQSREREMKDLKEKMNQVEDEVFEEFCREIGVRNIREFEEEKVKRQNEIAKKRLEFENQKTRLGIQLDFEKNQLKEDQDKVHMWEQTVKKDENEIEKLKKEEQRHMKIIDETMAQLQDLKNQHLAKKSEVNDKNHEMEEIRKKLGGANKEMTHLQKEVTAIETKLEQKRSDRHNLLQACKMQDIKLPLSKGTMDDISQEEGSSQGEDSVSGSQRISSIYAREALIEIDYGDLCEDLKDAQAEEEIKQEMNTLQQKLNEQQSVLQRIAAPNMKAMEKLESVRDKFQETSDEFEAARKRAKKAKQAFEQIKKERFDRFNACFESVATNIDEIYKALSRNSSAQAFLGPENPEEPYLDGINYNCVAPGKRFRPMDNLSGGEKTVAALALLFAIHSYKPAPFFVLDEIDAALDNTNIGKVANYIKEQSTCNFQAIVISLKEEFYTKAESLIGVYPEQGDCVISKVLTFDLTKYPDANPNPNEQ
UniProt P09012, whole entry, looked up: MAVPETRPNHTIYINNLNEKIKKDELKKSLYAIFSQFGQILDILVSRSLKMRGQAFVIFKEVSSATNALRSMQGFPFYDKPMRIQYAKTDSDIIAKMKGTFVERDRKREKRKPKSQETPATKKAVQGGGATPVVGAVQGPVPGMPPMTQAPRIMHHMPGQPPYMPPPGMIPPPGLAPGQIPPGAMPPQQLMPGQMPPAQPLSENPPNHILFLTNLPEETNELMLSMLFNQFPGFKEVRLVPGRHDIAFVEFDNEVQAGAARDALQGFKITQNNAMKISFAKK
UniProt P28370, whole entry, looked up: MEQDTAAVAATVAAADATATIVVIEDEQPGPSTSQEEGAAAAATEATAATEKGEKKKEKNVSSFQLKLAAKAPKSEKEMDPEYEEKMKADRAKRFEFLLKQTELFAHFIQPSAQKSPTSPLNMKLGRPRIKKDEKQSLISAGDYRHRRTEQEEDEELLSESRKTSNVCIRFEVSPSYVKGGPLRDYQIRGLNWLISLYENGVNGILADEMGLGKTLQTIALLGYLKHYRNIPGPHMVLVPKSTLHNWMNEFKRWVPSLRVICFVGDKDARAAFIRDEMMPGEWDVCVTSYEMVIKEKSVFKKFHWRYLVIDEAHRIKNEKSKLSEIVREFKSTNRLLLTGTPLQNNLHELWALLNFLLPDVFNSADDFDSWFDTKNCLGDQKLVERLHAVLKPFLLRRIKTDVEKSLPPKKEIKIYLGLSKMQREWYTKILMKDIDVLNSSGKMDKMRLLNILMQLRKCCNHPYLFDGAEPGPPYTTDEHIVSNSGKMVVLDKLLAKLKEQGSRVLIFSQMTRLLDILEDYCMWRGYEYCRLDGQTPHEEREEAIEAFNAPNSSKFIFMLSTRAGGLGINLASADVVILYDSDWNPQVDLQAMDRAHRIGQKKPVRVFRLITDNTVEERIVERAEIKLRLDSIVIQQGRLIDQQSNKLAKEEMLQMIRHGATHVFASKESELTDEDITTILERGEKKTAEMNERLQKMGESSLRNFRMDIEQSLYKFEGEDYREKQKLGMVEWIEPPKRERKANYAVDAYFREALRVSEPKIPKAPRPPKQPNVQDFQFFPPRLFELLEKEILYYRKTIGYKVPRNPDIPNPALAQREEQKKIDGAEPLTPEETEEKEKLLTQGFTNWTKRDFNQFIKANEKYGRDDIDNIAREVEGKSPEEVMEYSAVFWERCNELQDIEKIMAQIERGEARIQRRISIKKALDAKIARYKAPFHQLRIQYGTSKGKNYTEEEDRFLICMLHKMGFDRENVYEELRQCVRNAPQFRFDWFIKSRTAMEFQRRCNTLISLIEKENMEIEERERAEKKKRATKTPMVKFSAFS
UniProt P62304, whole entry, looked up: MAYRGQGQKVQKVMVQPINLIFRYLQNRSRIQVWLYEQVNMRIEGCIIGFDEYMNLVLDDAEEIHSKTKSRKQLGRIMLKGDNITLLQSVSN
UniProt O95295: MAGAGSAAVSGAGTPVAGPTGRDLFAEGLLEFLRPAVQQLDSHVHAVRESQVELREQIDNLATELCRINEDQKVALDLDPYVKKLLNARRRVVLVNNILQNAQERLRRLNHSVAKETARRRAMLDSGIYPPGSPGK

The targets below were run with NCC(=O)Nc1ccc(-n2nc(C(F)(F)F)cc2-c2ccc3c(ccc4ccccc43)c2)cc1 (assay: log2 fold change, soluble protein after heating vs DMSO (PISA); higher = thermal stabilisation; K562 cells, 10 uM, 30 min; active = over 0.2 and 3.5 SD of the protein, either way, in both replicates (recomputed)).
Outline: (§1)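 K562 cells at 2×10^6 cells/mL were treated with 10 μM compound for 30 min. Aliquots were heated for 3 min across 48°C-58°C, pooled, and extracted in PBS with 0.5% NP-40 at 4°C; soluble protein was the supernatant after 21,000xg for 90 min. Soluble protein was quantified by TMTpro 16plex LC-MS/MS with channel sums equalised, and reported as log2 fold change in thermal stability against DMSO controls, with values from duplicates.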

| Target | log2 fold change |
| --- | --- |
| SMARCC2 (UniProt Q8TAQ2) | inactive: -0.092 |
| SNF8 (UniProt Q96H20) | inactive: -0.01 |
| SNCA (UniProt P37840) | inactive: -0.027 |
| SMS (UniProt P52788) | inactive: 0.016 |
| SMARCC1 (UniProt Q92922) | inactive: -0.115 |
| SLC9A1 (UniProt P19634) | inactive: 0.195 |
| SMIM12 (UniProt Q96EX1) | inactive: -0.1 |
| SMC2 (UniProt O95347) | inactive: -0.037 |
| SNU13, A0A3B3IUA2 | inactive: -0.2 |
| SMU1 (UniProt Q2TAY7) | inactive: 0.047 |
| SOCS2 (UniProt O14508) | inactive: -0.097 |
| SND1 (UniProt Q7KZF4) | inactive: 0.135 |
| SNRPD2 (UniProt P62316) | inactive: 0.03 |
| SNAP23 (UniProt O00161) | inactive: 0.028 |
| SNRPF (UniProt P62306) | inactive: 0.012 |
| SPA17 (UniProt Q15506) | inactive: 0.007 |
| SNRNP70 (UniProt P08621) | inactive: 0.018 |
| SLCO4A1 (UniProt Q96BD0) | inactive: -0.058 |
| SMC4 (UniProt Q9NTJ3) | inactive: -0.046 |
| SNRPA1 (UniProt P09661) | inactive: 0.047 |

| Target | log2 fold change |
| --- | --- |
| SMN1 (UniProt Q16637) | inactive: 0.107 |
| SMIM8 (UniProt Q96KF7) | inactive: -0.001 |
| SNRPC (UniProt Q5TAL2) | inactive: 0.178 |
| SMC3 (UniProt Q9UQE7) | inactive: -0.043 |
| SMC1A (UniProt Q14683) | inactive: -0.056 |
| SPAG5 (UniProt Q96R06) | inactive: -0.072 |
| SNRNP200 (UniProt O75643) | inactive: -0.026 |
| SLMAP (UniProt Q14BN4) | inactive: -0.039 |
| SNRPG (UniProt P62308) | inactive: 0.049 |
| SNAP29 (UniProt O95721) | inactive: 0.017 |
| SNRPA (UniProt P09012) | inactive: 0.047 |
| SMC6 isoform 2 (UniProt Q96SB8) | inactive: 0.067 |
| SMC1B isoform 3 (UniProt Q8NDV3) | inactive: -0.02 |
| SMIM26, A0A096LP01 | inactive: -0.028 |
| SMARCA1 (UniProt P28370) | inactive: -0.232 |
| SLC9A3R2 (UniProt Q15599) | inactive: -0.03 |
| SNRPC (UniProt P09234) | inactive: 0.068 |
| SNRPE (UniProt P62304) | inactive: 0.009 |
| SNAPIN (UniProt O95295) | inactive: 0.041 |
| SMYD5 (UniProt Q6GMV2) | inactive: -0.005 |

These targets were tested with Nc1ccccc1NC(=O)c1ccc(CNC(=O)OCc2cccnc2)cc1 [entinostat] in the same assay as above.
Outline: as §1

| Target | log2 fold change |
| --- | --- |
| SMARCC2 (UniProt Q8TAQ2) | inactive: 0.137 |
| SNF8 (UniProt Q96H20) | inactive: -0.005 |
| SNCA (UniProt P37840) | inactive: -0.024 |
| SMS (UniProt P52788) | inactive: -0.014 |
| SMARCC1 (UniProt Q92922) | inactive: -0.009 |
| SLC9A1 (UniProt P19634) | inactive: -0.054 |
| SMIM12 (UniProt Q96EX1) | inactive: 0.057 |
| SMC2 (UniProt O95347) | inactive: 0.045 |
| SNU13, A0A3B3IUA2 | inactive: -0.063 |
| SMU1 (UniProt Q2TAY7) | inactive: -0.026 |
| SOCS2 (UniProt O14508) | inactive: -0.009 |
| SND1 (UniProt Q7KZF4) | inactive: 0.103 |
| SNRPD2 (UniProt P62316) | inactive: -0.051 |
| SNAP23 (UniProt O00161) | inactive: -0.029 |
| SNRPF (UniProt P62306) | inactive: 0.038 |
| SPA17 (UniProt Q15506) | inactive: 0.101 |
| SNRNP70 (UniProt P08621) | inactive: -0.055 |
| SLCO4A1 (UniProt Q96BD0) | inactive: -0.02 |
| SMC4 (UniProt Q9NTJ3) | inactive: 0.046 |
| SNRPA1 (UniProt P09661) | inactive: 0.008 |

| Target | log2 fold change |
| --- | --- |
| SMN1 (UniProt Q16637) | inactive: -0.071 |
| SMIM8 (UniProt Q96KF7) | inactive: 0.016 |
| SNRPC (UniProt Q5TAL2) | inactive: 0.075 |
| SMC3 (UniProt Q9UQE7) | inactive: 0.007 |
| SMC1A (UniProt Q14683) | inactive: -0.009 |
| SPAG5 (UniProt Q96R06) | inactive: 0.087 |
| SNRNP200 (UniProt O75643) | inactive: -0.051 |
| SLMAP (UniProt Q14BN4) | inactive: 0.088 |
| SNRPG (UniProt P62308) | inactive: -0.032 |
| SNAP29 (UniProt O95721) | inactive: -0.014 |
| SNRPA (UniProt P09012) | inactive: -0.113 |
| SMC6 isoform 2 (UniProt Q96SB8) | inactive: 0 |
| SMC1B isoform 3 (UniProt Q8NDV3) | inactive: -0.003 |
| SMIM26, A0A096LP01 | inactive: 0.068 |
| SMARCA1 (UniProt P28370) | inactive: 0.101 |
| SLC9A3R2 (UniProt Q15599) | inactive: -0.057 |
| SNRPC (UniProt P09234) | inactive: 0.026 |
| SNRPE (UniProt P62304) | inactive: -0.046 |
| SNAPIN (UniProt O95295) | inactive: -0.041 |
| SMYD5 (UniProt Q6GMV2) | inactive: 0.018 |
